Laboratory results published in the supplement of paper PMC7661543.
± gives the standard deviation of the averaged measurements. The effect of the compound repeats well; differences between the knockouts mostly do not.

Test system: MDA-MB-231
Assay: relative cell number vs DMSO control (72 h) (% of DMSO); higher = less growth inhibition (more cells)
Experimental: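 QMAP-Seq: a pool of 5 breast cancer cell lines (ZR-75-1, SKBR3, HCC-38, MDA-MB-231, BT-20), each carrying 12 doxycycline-inducible Cas9 sgRNA perturbations (11 knockouts plus non-targeting sgNT), was treated with compounds for 72 h at four 10-fold doses (10 nM-10 uM or 1 nM-1 uM range). Barcodes were amplified and sequenced, and cell number was interpolated from 293T spike-in standard curves. The result is expressed as % of the median of DMSO wells. Two biological replicates.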

Cc1ccc(C(=O)N(CCCN)[C@@H](c2oc3cc(Cl)ccc3c(=O)c2Cc2ccccc2)C(C)C)cc1
Conditions	relative cell number
sgRNA knockout: sgATF3, 10 nM	20.6 ± 4.2
sgRNA knockout: sgATF3, 100 nM	33.9 ± 3.3
sgRNA knockout: sgATF3, 1000 nM	37.3 ± 12
sgRNA knockout: sgATF3, 10000 nM	4.04 ± 0.35
sgRNA knockout: sgATF4, 10 nM	28.6 ± 7.6
sgRNA knockout: sgATF4, 100 nM	31 ± 8.1
sgRNA knockout: sgATF4, 1000 nM	28.5 ± 3.7
sgRNA knockout: sgATF4, 10000 nM	3.47 ± 0.94
sgRNA knockout: sgATF6, 10 nM	20.7 ± 3.1
sgRNA knockout: sgATF6, 100 nM	41.6 ± 1.4
sgRNA knockout: sgATF6, 1000 nM	32.3 ± 4.2
sgRNA knockout: sgATF6, 10000 nM	2.88 ± 1.1
sgRNA knockout: sgATG7, 10 nM	21.8 ± 12
sgRNA knockout: sgATG7, 100 nM	24.4 ± 4.8
sgRNA knockout: sgATG7, 1000 nM	32.42 ± 0.14
sgRNA knockout: sgATG7, 10000 nM	3.49 ± 1.7
sgRNA knockout: sgERN1, 10 nM	22.4 ± 6.1
sgRNA knockout: sgERN1, 100 nM	28.8 ± 9.2
sgRNA knockout: sgERN1, 1000 nM	29.8 ± 2.2
sgRNA knockout: sgERN1, 10000 nM	5.17 ± 0.42
sgRNA knockout: sgHSF1, 10 nM	27.7 ± 4.1
sgRNA knockout: sgHSF1, 100 nM	16.8 ± 3.2
sgRNA knockout: sgHSF1, 1000 nM	23.6 ± 8
sgRNA knockout: sgHSF1, 10000 nM	6.46 ± 1.5
sgRNA knockout: sgHSF2, 10 nM	22.7 ± 11
sgRNA knockout: sgHSF2, 100 nM	25.4 ± 4.5
sgRNA knockout: sgHSF2, 1000 nM	31.3 ± 3
sgRNA knockout: sgHSF2, 10000 nM	3.92 ± 0.56
sgRNA knockout: sgKEAP1, 10 nM	26 ± 13
sgRNA knockout: sgKEAP1, 100 nM	22.9 ± 5.2
sgRNA knockout: sgKEAP1, 1000 nM	24.7 ± 0.41
sgRNA knockout: sgKEAP1, 10000 nM	3.95 ± 1.8
sgRNA knockout: sgNFE2L2, 10 nM	25.5 ± 7.5
sgRNA knockout: sgNFE2L2, 100 nM	25.8 ± 4
sgRNA knockout: sgNFE2L2, 1000 nM	27.2 ± 2.9
sgRNA knockout: sgNFE2L2, 10000 nM	3.65 ± 1.7
sgRNA knockout: sgSLC35F2, 10 nM	23.1 ± 1.3
sgRNA knockout: sgSLC35F2, 100 nM	22.1 ± 11
sgRNA knockout: sgSLC35F2, 1000 nM	27.6 ± 12
sgRNA knockout: sgSLC35F2, 10000 nM	4.2 ± 1.5
sgRNA knockout: sgXBP1, 10 nM	19.4 ± 6
sgRNA knockout: sgXBP1, 100 nM	23 ± 9.2
sgRNA knockout: sgXBP1, 1000 nM	27.5 ± 0.36
sgRNA knockout: sgXBP1, 10000 nM	4.74 ± 4.1

Cc1ccc(S(=O)(=O)OCC(=O)Nc2ccc(C(=O)O)c(O)c2)cc1
Conditions	relative cell number
sgRNA knockout: sgATF3, 10 nM	117 ± 31
sgRNA knockout: sgATF3, 100 nM	89.1 ± 48
sgRNA knockout: sgATF3, 1000 nM	121 ± 13
sgRNA knockout: sgATF3, 10000 nM	99.7 ± 29
sgRNA knockout: sgATF4, 10 nM	97.5 ± 40
sgRNA knockout: sgATF4, 100 nM	130 ± 9.4
sgRNA knockout: sgATF4, 1000 nM	120 ± 13
sgRNA knockout: sgATF4, 10000 nM	102 ± 14
sgRNA knockout: sgATF6, 10 nM	117 ± 52
sgRNA knockout: sgATF6, 100 nM	84.7 ± 23
sgRNA knockout: sgATF6, 1000 nM	103 ± 4
sgRNA knockout: sgATF6, 10000 nM	91.1 ± 2.2
sgRNA knockout: sgATG7, 10 nM	106 ± 13
sgRNA knockout: sgATG7, 100 nM	88 ± 15
sgRNA knockout: sgATG7, 1000 nM	95.5 ± 8.9
sgRNA knockout: sgATG7, 10000 nM	85.9 ± 14
sgRNA knockout: sgERN1, 10 nM	173 ± 96
sgRNA knockout: sgERN1, 100 nM	92.7 ± 6.2
sgRNA knockout: sgERN1, 1000 nM	90.9 ± 7.9
sgRNA knockout: sgERN1, 10000 nM	97.5 ± 16
sgRNA knockout: sgHSF1, 10 nM	109 ± 35
sgRNA knockout: sgHSF1, 100 nM	95.9 ± 9.8
sgRNA knockout: sgHSF1, 1000 nM	81.2 ± 11
sgRNA knockout: sgHSF1, 10000 nM	75.9 ± 15
sgRNA knockout: sgHSF2, 10 nM	144 ± 40
sgRNA knockout: sgHSF2, 100 nM	89.6 ± 20
sgRNA knockout: sgHSF2, 1000 nM	86.5 ± 12
sgRNA knockout: sgHSF2, 10000 nM	96.1 ± 11
sgRNA knockout: sgKEAP1, 10 nM	98.7 ± 16
sgRNA knockout: sgKEAP1, 100 nM	83.3 ± 11
sgRNA knockout: sgKEAP1, 1000 nM	106.7 ± 0.66
sgRNA knockout: sgKEAP1, 10000 nM	82.1 ± 5.6
sgRNA knockout: sgNFE2L2, 10 nM	116.1 ± 0.83
sgRNA knockout: sgNFE2L2, 100 nM	85.9 ± 17
sgRNA knockout: sgNFE2L2, 1000 nM	109 ± 8.6
sgRNA knockout: sgNFE2L2, 10000 nM	82.7 ± 17
sgRNA knockout: sgSLC35F2, 10 nM	127 ± 8.1
sgRNA knockout: sgSLC35F2, 100 nM	73.8 ± 10
sgRNA knockout: sgSLC35F2, 1000 nM	94.9 ± 20
sgRNA knockout: sgSLC35F2, 10000 nM	96.6 ± 14
sgRNA knockout: sgXBP1, 10 nM	106 ± 21
sgRNA knockout: sgXBP1, 100 nM	108 ± 11
sgRNA knockout: sgXBP1, 1000 nM	101 ± 6.4
sgRNA knockout: sgXBP1, 10000 nM	85.5 ± 15

Cc1nc(Nc2n[nH]c3c2CN(C(=O)N[C@H](CN(C)C)c2ccccc2)C3(C)C)c2sccc2n1
Conditions	relative cell number
sgRNA knockout: sgATF3, 10 nM	48.6 ± 4.6
sgRNA knockout: sgATF3, 100 nM	35.1 ± 3.3
sgRNA knockout: sgATF3, 1000 nM	14.6 ± 11
sgRNA knockout: sgATF3, 10000 nM	2.38 ± 1.8
sgRNA knockout: sgATF4, 10 nM	44.8 ± 9.9
sgRNA knockout: sgATF4, 100 nM	44.4 ± 14
sgRNA knockout: sgATF4, 1000 nM	15.4 ± 3.9
sgRNA knockout: sgATF4, 10000 nM	4.12 ± 4.1
sgRNA knockout: sgATF6, 10 nM	54.4 ± 8.1
sgRNA knockout: sgATF6, 100 nM	41 ± 2.4
sgRNA knockout: sgATF6, 1000 nM	11.6 ± 2.6
sgRNA knockout: sgATF6, 10000 nM	4.25 ± 1.1
sgRNA knockout: sgATG7, 10 nM	47.1 ± 15
sgRNA knockout: sgATG7, 100 nM	37.4 ± 7.8
sgRNA knockout: sgATG7, 1000 nM	10.8 ± 4.1
sgRNA knockout: sgATG7, 10000 nM	6.36 ± 2.4
sgRNA knockout: sgERN1, 10 nM	49 ± 4
sgRNA knockout: sgERN1, 100 nM	39.4 ± 14
sgRNA knockout: sgERN1, 1000 nM	17.8 ± 0.46
sgRNA knockout: sgERN1, 10000 nM	4.77 ± 1.1
sgRNA knockout: sgHSF1, 10 nM	46.7 ± 1.8
sgRNA knockout: sgHSF1, 100 nM	24.8 ± 6.6
sgRNA knockout: sgHSF1, 1000 nM	14.6 ± 1.2
sgRNA knockout: sgHSF1, 10000 nM	3.52 ± 0.65
sgRNA knockout: sgHSF2, 10 nM	48.4 ± 5.2
sgRNA knockout: sgHSF2, 100 nM	35.3 ± 7.1
sgRNA knockout: sgHSF2, 1000 nM	12.4 ± 5
sgRNA knockout: sgHSF2, 10000 nM	2.6 ± 0.93
sgRNA knockout: sgKEAP1, 10 nM	42.2 ± 11
sgRNA knockout: sgKEAP1, 100 nM	36.6 ± 0.87
sgRNA knockout: sgKEAP1, 1000 nM	11.1 ± 1.1
sgRNA knockout: sgKEAP1, 10000 nM	3.96 ± 3.2
sgRNA knockout: sgNFE2L2, 10 nM	45.6 ± 17
sgRNA knockout: sgNFE2L2, 100 nM	30.01 ± 0.25
sgRNA knockout: sgNFE2L2, 1000 nM	13.6 ± 2
sgRNA knockout: sgNFE2L2, 10000 nM	3.66 ± 1.8
sgRNA knockout: sgSLC35F2, 10 nM	48.1 ± 3
sgRNA knockout: sgSLC35F2, 100 nM	25.4 ± 5.7
sgRNA knockout: sgSLC35F2, 1000 nM	19.7 ± 1.7
sgRNA knockout: sgSLC35F2, 10000 nM	5.09 ± 1.8
sgRNA knockout: sgXBP1, 10 nM	41.1 ± 2.6
sgRNA knockout: sgXBP1, 100 nM	39.9 ± 1.4
sgRNA knockout: sgXBP1, 1000 nM	10.4 ± 3.5
sgRNA knockout: sgXBP1, 10000 nM	6.91 ± 2.4
